# Experimental data reported in PubChem BioAssay AID493014 (National Center for Advancing Translational Sciences (NCATS), 2011).
# The other results are listed elsewhere or left out. These are further read-outs of the screen, such as a control signal, another cell line or another target. No call is given for them. The list favours compounds with an active or inconclusive main result. The note in brackets gives the kind of curve behind each potency; many fits are weak.
# Test: qHTS Assay to Find Inhibitors of Chronic Active B-Cell Receptor Signaling
# Conditions: ABC-DLBCL IkBa-CBG/CBR reporter, luminescence ratio (green luciferase fused to IkBa over red control in TMD8 lymphoma cells), 4 h
# Procedure, shortened: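 Concentration-response series (up to 46 uM) were applied to TMD8 dual-reporter cells for 4 h at 37C with doxycycline. Green/red ratio, after filter-overlap correction, defined %Activity; red signal alone was normalised to basal cells and zero luminescence.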
# [1] = measured here: CBR red luminescence, cell number
# [2] = measured here: IkBa-CBG green luminescence
smiles,measurement,setting,value
Nc1cccc2c1C(=O)N(Cc1nnc(-c3ccccc3Br)o1)C2=O,AC50,[1],"1.41 µM [falling, full curve, poor fit]"
CCCOc1ccc(NC(=O)C2CCCNC2=O)cc1 (stereo not drawn),AC50,[1],"7.31 µM [falling, partial curve]"
S=c1[nH]nc(COc2ccccc2)n1/N=C/c1ccccc1Cl,AC50,[1],"35.5 µM [rising, single point]"
CC(=O)c1c(N2CCN(C)CC2)nc(=S)n(-c2cc(C)ccc2C)c1C,AC50,[1],"11.2 µM [rising, partial curve]"
COc1ccc(N2CCN(C(=O)c3cc(=O)c4cc(C)c(C)cc4o3)CC2)cc1,AC50,[1],"3.98 µM [rising, full curve, poor fit]"
Cc1nn(Cc2ccccc2)c(C)c1NC(=O)CSc1nnc(-c2cc(Cl)ccc2O)n1C,AC50,[1],"0.461 µM [falling, full curve, poor fit]"
COc1ccc(-c2cc(C#N)nc(NN)n2)cc1,AC50,[1],"6.31 µM [falling, single point]"
O=C(O)CC(NCc1ccco1)C(=O)OCC1CCCO1 (stereo not drawn),AC50,[1],"35.5 µM [rising, single point]"
CCOc1ccc(NC(=O)CSC2=C(C#N)C(c3ccc4c(c3)OCO4)CC(=O)N2)cc1 (stereo not drawn),AC50,[1],"7.31 µM [rising, partial curve, poor fit]"
Cc1ccccc1OCC(=O)NNC(=O)c1ccc2c(=O)n3c(nc2c1)CCC3,AC50,[1],"0.651 µM [falling, partial curve, poor fit]"
same,AC50,[2],"23.1 µM [rising, partial curve, poor fit]"
COc1cc(OC)cc(-c2sc3ccc(OC)cc3c2-c2ccc3cc[nH]c3c2)c1,AC50,[1],"29.1 µM [rising, single point]"
CCOC(=O)C1=C(C)NC(C)=C(C(=O)OCC)C1C,AC50,[1],"18.4 µM [rising, partial curve, poor fit]"
Cc1cccnc1NC(=O)c1ccc2c(c1)NC(=O)C(C)S2 (stereo not drawn),AC50,[1],"5.8 µM [falling, partial curve]"
S=C(Nc1ccc(Cl)c(Cl)c1)NC1CCN(Cc2ccccc2)CC1,AC50,[1],"6.51 µM [falling, partial curve, poor fit]"
COc1cccc(N2CCN(c3ncnc4c3[nH]c3ccccc34)CC2C)c1 (stereo not drawn),AC50,[1],"13 µM [falling, partial curve]"
same,AC50,[2],"20.6 µM [rising, single point]"
O=C1CCCN1c1ccc(S(=O)(=O)Oc2ccc(Cl)cc2)cc1[N+](=O)[O-],AC50,[1],"25.1 µM [falling, single point]"
O=C(O)c1csc(N/N=C/c2ccc(Br)cc2)n1,AC50,[1],"22.4 µM [falling, single point]"
COc1cc2nc(CN3CCN(S(=O)(=O)c4c(F)cccc4F)CC3)[nH]c(=O)c2cc1OC,AC50,[1],"14.6 µM [rising, partial curve, poor fit]"
NC(N)=N/N=C/c1ccc(Cl)cc1Cl,AC50,[1],"11.2 µM [falling, partial curve, poor fit]"
Oc1ccc(/C=N/NC2=NCCCCC2)c(O)c1,AC50,[1],"14.6 µM [falling, single point]"
O=C(NNC(=O)c1cc2cc(OC(F)(F)F)ccc2[nH]1)c1ccc(Cl)cc1,AC50,[1],"2.51 µM [rising, full curve]"
CC(C)OC(=O)/C(=C/c1ccc(Br)cc1)NC(=O)c1ccco1,AC50,[1],"32.6 µM [rising, partial curve, poor fit]"
CCOC(=O)c1sc(NNC(=O)c2ccc(C)cc2)nc1C,AC50,[1],"5.62 µM [rising, single point]"
CCc1ccccc1OCC(=O)Nc1cccc(S(=O)(=O)NCc2ccco2)c1,AC50,[1],"5.8 µM [falling, partial curve]"
COc1ccc(S(=O)(=O)N2CCOC2CNC(=O)C(=O)NCCCN2CCOCC2)cc1 (stereo not drawn),AC50,[1],"12.6 µM [rising, partial curve, poor fit]"
COc1ccc(C(=O)N/N=C(\C)CC(=O)Nc2ccc(Cl)cn2)cc1,AC50,[1],"7.08 µM [falling, partial curve, poor fit]"
C/C(=N\NC(=O)c1cccs1)c1ccc(C(=O)O)s1,AC50,[1],"10 µM [falling, partial curve, poor fit]"
COCCOC(=O)C1=C(C)N=C2SCCC(=O)N2C1/C=C/c1ccccc1 (stereo not drawn),AC50,[1],"3.55 µM [rising, single point]"
CC1(C)CC2CC(C)(CN2C(=O)COC(=O)c2cccc([N+](=O)[O-])c2)C1 (stereo not drawn),AC50,[1],"6.51 µM [rising, single point]"
c1ccc(CNc2ccc(N3CCOCC3)cc2)cc1,AC50,[1],"0.58 µM [rising, full curve, poor fit]"
CC(C)CCNC(=O)CCS(=O)(=O)c1cccc2nonc12,AC50,[1],"6.51 µM [falling, single point]"

# Quoted at random: 2 entries already listed
smiles,measurement,setting,value
NC(N)=N/N=C/c1ccc(Cl)cc1Cl,AC50,[1],"11.2 µM [falling, partial curve, poor fit]"
O=C(O)CC(NCc1ccco1)C(=O)OCC1CCCO1 (stereo not drawn),AC50,[1],"35.5 µM [rising, single point]"
